In this assay the test system is Pseudomonas aeruginosa. Kind of assay: Antibacterial activity against Pseudomonas aeruginosa PAO1 assessed as inhibition of bacterial growth for complete inhibition of bacterial growth incubated for 24 hrs. The class given is functional.

We go through one compound from ChEMBL document CHEMBL5030542, “Pillar[5]arene-Based Polycationic Glyco[2]rotaxanes Designed as Pseudomonas aeruginosa Antibiofilm Agents” (J Med Chem, 2021).

Values after ≈ are worked out from the molar mass of the structure shown.

As a reminder, the MIC is the lowest concentration that inhibits growth of the organism.

On to `NC[C@H]1O[C@H](O[C@H]2[C@H](O)[C@@H](O[C@H]3O[C@H](CO)[C@@H](O)[C@H](N)[C@H]3O)[C@H](N)C[C@@H]2N)[C@H](N)C[C@@H]1O` [TOBRAMYCIN], for which the MIC was found to be 2 µM (≈ 0.935 µg/mL).
